According to PubChem BioAssay AID1671190 (National Center for Advancing Translational Sciences (NCATS), 2021):
Several values for one entry are separate records, joined by “and”; a condition that tells them apart may be missing. Equal values may be shown once. Screen size: about 580,000 compounds; about 6,100 (1.1%) were called active. Inconclusive means that the source gave no clear call. Such entries were picked first, then a sample of the others. Calls follow the shape of the dose curve; as a rule, active = well fitted inhibition curve with a large enough effect; inconclusive = small, poorly fitted or top-dose-only effect, or another doubt; inactive = no such curve, though single readings can be large or run the other way. Potencies of inconclusive entries are doubtful fits and often do not repeat.
% is scaled to controls: 0 for no effect and ±100 for the full control effect; potency is read from the fitted curve at half-maximal effect.

By UniProt entry, the sequences of proteins in these tests, tags left out. Where a name states a change or a piece, a line headed by the entry shows the natural chain unless it says otherwise.
UniProt P18054: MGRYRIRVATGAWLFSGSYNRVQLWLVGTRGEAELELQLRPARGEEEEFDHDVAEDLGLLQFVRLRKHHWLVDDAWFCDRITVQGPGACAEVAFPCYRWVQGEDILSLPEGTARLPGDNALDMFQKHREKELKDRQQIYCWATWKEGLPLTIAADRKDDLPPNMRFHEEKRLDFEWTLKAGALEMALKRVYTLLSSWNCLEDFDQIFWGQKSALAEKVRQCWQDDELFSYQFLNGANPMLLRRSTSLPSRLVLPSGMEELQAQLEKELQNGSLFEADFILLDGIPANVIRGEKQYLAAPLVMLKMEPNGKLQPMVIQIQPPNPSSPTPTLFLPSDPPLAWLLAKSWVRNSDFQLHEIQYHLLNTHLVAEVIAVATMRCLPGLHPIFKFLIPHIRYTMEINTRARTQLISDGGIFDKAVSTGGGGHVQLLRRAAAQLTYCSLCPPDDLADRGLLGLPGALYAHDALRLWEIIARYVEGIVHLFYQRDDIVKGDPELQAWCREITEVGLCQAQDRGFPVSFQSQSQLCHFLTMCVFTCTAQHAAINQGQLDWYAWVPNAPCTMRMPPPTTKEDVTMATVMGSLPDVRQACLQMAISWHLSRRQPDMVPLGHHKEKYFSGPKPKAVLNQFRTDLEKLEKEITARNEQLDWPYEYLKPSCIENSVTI

These molecules were tested against Polyunsaturated fatty acid lipoxygenase ALOX12 (Homo sapiens) (UniProt P18054) (assay: Primary qHTS assay for inhibitors of human arachidonate 12S-lipoxygenase (ALOX12): Round 2). Settings: purified 12hLO, xylenol orange hydroperoxide absorbance; activity change, negative = inhibition: at 108 µM (top of the series) unless noted.
How it was run: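 Purified human 12hLO (150 nM final) in 25 mM Hepes, 0.01% Triton X-100, pH 7.0 was preincubated 15 min at room temperature with compound. Then 40 uM arachidonic acid was added, 30 min. Hydroperoxide was read by Fe-XO absorbance ratio 573/405 nm.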
For `CCOc1ccc(C(=O)Nc2nnc(S(=O)(=O)Nc3ccccc3)s2)cc1`, the “activity change, negative = inhibition” value was inactive: -5.55%.
`CC(OC(=O)C1CC=CCC1C(N)=O)C(Cl)=C(Cl)Cl` (stereo not given) was tested, and the Potency was inconclusive: 39.8 µM [inhibitor, partial curve].
In the case of `O=C(CCC1CCCN(C(=O)c2ccc3cc[nH]c3c2)C1)N1CCN(c2ccccn2)CC1` (stereo not given), the “activity change, negative = inhibition” value is reported as inactive: -8.42%.
With `CC(C)CCOCC(=O)Oc1ccccc1C(=O)O` the Potency was inconclusive: 35.5 µM [inhibitor, partial curve, poor fit].
For `O=C(C1CCc2nnc(-c3cccc(C(F)(F)F)c3)n21)N1CCOCC1` (stereo not given), the activity change, negative = inhibition was inconclusive: -32.3% [inhibitor].
With `COc1ccc(NC(=O)C[C@@H]2C(=O)N(c3ccc(OC)cc3)CC2(C)C)cc1` the Potency was inconclusive: 141 µM [inhibitor, single point].
With `CCN(c1ccccc1)S(=O)(=O)c1ccc(NC(=S)NC(=O)c2cccs2)cc1` the Potency was inconclusive: 50.1 µM [inhibitor, partial curve, poor fit].
In the case of `Cc1oc(/N=C/c2ccc(Cl)cc2)c(C#N)c1C`, the Potency is reported as inconclusive: 50.1 µM [inhibitor, partial curve, poor fit].
In the case of `CSC(=NS(=O)(=O)c1ccccc1)SC`, the Potency is reported as inconclusive: 100 µM [inhibitor, single point].
`Cc1cc(Nc2ccccc2)nc(Nc2ccc(NC(=O)c3ccc(Cl)cc3)cc2)n1` was tested, and the Potency was inconclusive: 44.7 µM [inhibitor, partial curve, poor fit].
For `COc1ccc(Cl)cc1NC(=O)COc1ccccc1O`, the Potency was inconclusive: 35.5 µM [inhibitor, single point].
In the case of `Cn1nc(C(=O)Nc2ccccc2C(N)=O)c2ccccc2c1=O`, the Potency is reported as inconclusive: 39.8 µM [inhibitor, partial curve, poor fit].
In the case of `C=CCNCC(=O)N1N=C(c2ccc3ccccc3c2)CC1c1ccc(OC)cc1` (stereo not given), the Potency is reported as inconclusive: 22.4 µM [inhibitor, partial curve, poor fit].
For `COc1ccc(CN2CCC2(C)C(=O)NCc2ccc3c(c2)OCO3)c2ccccc12` (stereo not given), the Potency was inconclusive: 0.158 µM [inhibitor, full curve, poor fit].
In the case of `Cc1cc(C)c2nc(N3CCC(C(=O)N4CCN(C(=O)c5ccco5)CC4)CC3)sc2c1`, the Potency is reported as inconclusive: 50.1 µM [inhibitor, partial curve, poor fit].
In the case of `CCOC(=O)C1=C(C)N(CCCCCC(=O)O)C(=O)NC1c1ccccc1OS(=O)(=O)c1ccc(C)cc1` (stereo not given), the Potency is reported as inconclusive: 39.8 µM [inhibitor, partial curve, poor fit].
For `CNc1cccc(Cl)c1Cl`, the Potency was inconclusive: 3.98 µM [inhibitor, full curve, poor fit].
`Cc1cc(C(C)(C)C)cc(C)c1CSC1=NCC(C)(C)CN1` was tested, and the Potency was inconclusive: 56.2 µM [inhibitor, partial curve, poor fit].
For `Cc1cccc(C)c1NC(=O)CN(C)C(=O)CC1CC2CCC1C2` (stereo not given), the Potency was inconclusive: 70.8 µM [inhibitor, partial curve, poor fit].
For `COc1ccc(Br)cc1S(=O)(=O)NCC(C)CN1CCCC1` (stereo not given), the Potency was inconclusive: 63.1 µM [inhibitor, single point].
`Cn1c(CSc2nc3ccccc3s2)n[nH]c1=S` was tested, and the Potency was inconclusive: 44.7 µM [inhibitor, partial curve, poor fit].
For `CC(C)N1CCc2c(C#N)c(NCc3ccco3)n3cnnc3c2C1`, the Potency was inconclusive: 70.8 µM [inhibitor, partial curve, poor fit].
`CCN1CCN(c2ccc(NC(=O)c3ccc(OC)c(S(=O)(=O)N4CCCC4)c3)cc2)CC1` was tested, and the Potency was inconclusive: 39.8 µM [inhibitor, partial curve, poor fit].
`O=c1oc2ccccc2c(O)c1/C=N/c1ncccn1` was tested, and the Potency was inconclusive: 20 µM [inhibitor, partial curve, poor fit].
For `CCOc1ccc(CNc2nc(NCc3ccc(OCC)cc3)n(C(=O)CC(C)C)n2)cc1`, the Potency was inconclusive: 39.8 µM [inhibitor, partial curve, poor fit].
With `CCCN1CCN(C(=O)Cn2c(-c3cccs3)cc3ccccc32)CC1` the “activity change, negative = inhibition” value was inactive: 6.63%.
In the case of `CC(C)CNc1nccc(C2(c3ccccc3Cl)CCNCC2)n1`, the Potency is reported as inconclusive: 39.8 µM [inhibitor, single point].
In the case of `NS(=O)(=O)c1cccc2nsnc12`, the “activity change, negative = inhibition” value is reported as inactive: 11.4%.
For `COC(=O)c1c(Oc2ccc(OC)cc2)nnc(-c2ccccc2)c1-c1ccccc1`, the Potency was inconclusive: 44.7 µM [inhibitor, partial curve, poor fit].
In the case of `Cc1ccc(S(=O)(=O)c2nc(N3CCOCC3)sc2Cl)cc1`, the “activity change, negative = inhibition” value is reported as inactive: -29.4%.
For `CCc1ccc2[nH]c(=O)c(CN(CCN(C)C)C(=S)NCc3ccco3)cc2c1`, the Potency was inconclusive: 7.94 µM [inhibitor, partial curve, poor fit].
`O=C(c1cccc(F)c1)N1CCC(Cc2nc(-c3ccccc3)no2)CC1` was tested, and the “activity change, negative = inhibition” value was inactive: 6.13%.
With `CSC(=O)NC(=O)NC(=O)c1ccc([N+](=O)[O-])cc1` the Potency was inconclusive: 39.8 µM [inhibitor, single point].
With `O=C(NCc1ccco1)c1cc(-c2cccs2)nc2ccccc12` the Potency was inconclusive: 44.7 µM [inhibitor, partial curve, poor fit] and inconclusive: 35.5 µM [inhibitor, partial curve].
For `CCCCOc1ccc(C2=NC(c3cccs3)=Nc3ccc(CC)cc3N2)cc1`, the Potency was inconclusive: 56.2 µM [inhibitor, partial curve, poor fit].
In the case of `CC(C)CCOc1ccc(/C=C(/CC(=O)O)c2nc3ccccc3s2)cc1`, the Potency is reported as inconclusive: 39.8 µM [inhibitor, partial curve, poor fit].
With `Cc1ccc(-c2ncc(NC(=O)c3ccccc3F)cn2)cc1` the “activity change, negative = inhibition” value was inactive: 13.7%.
For `COc1ccc(C(=O)N2CCC3(CC2)CC(CO)N(C(=O)c2ccccc2)C3)cc1` (stereo not given), the “activity change, negative = inhibition” value was inactive: 10.6%.
`C=CCNC(=S)Nc1ccc(N(C)C)cc1` was tested, and the Potency was inconclusive: 50.1 µM [inhibitor, partial curve, poor fit].
`Cc1cc(=O)n2c3ccccc3n(C)c2n1` was tested, and the Potency was inconclusive: 35.5 µM [inhibitor, partial curve, poor fit].
For `Cc1ccc(NC(=O)CCC(=O)c2cccs2)nc1`, the Potency was inconclusive: 31.6 µM [inhibitor, partial curve].
In the case of `COc1cccc(NC(=O)CN2C(=O)CSc3ccc(S(=O)(=O)N4CCCC4)cc32)c1`, the “activity change, negative = inhibition” value is reported as inactive: -11%.
With `CCOC(=O)c1cc2cc(OC)ccc2n1C1CCN(CCc2ccccc2)CC1` the “activity change, negative = inhibition” value was inactive: -105%.
With `Cc1ccc(CNC(=O)c2cccn2-c2nnc(N3CCCC3)s2)cc1` the Potency was inconclusive: 112 µM [inhibitor, partial curve, poor fit].
`CCC(=O)NC(NC(=S)Nc1cccc2cccnc12)C(Cl)(Cl)Cl` (stereo not given) was tested, and the Potency was inconclusive: 89.1 µM [inhibitor, partial curve, poor fit].
In the case of `O=S(=O)(NCCc1cn2ccccc2n1)c1ccccc1C(F)(F)F`, the Potency is reported as inconclusive: 11.2 µM [inhibitor, full curve].
With `Cc1noc([C@@H]2CN(C(=O)CC3CCCC3)C[C@H]2CO)n1` the “activity change, negative = inhibition” value was inactive: 5.97%.
With `CCC1(C)CC(c2nc(-c3ccc(OC)cc3)cs2)CCS1` (stereo not given) the Potency was inconclusive: 56.2 µM [inhibitor, partial curve, poor fit].
For `O=C(O)CNS(=O)(=O)c1ccc(Br)cc1`, the Potency was inconclusive: 89.1 µM [inhibitor, partial curve, poor fit].
For `O=C(NNc1ncc(C(F)(F)F)cc1Cl)c1c(Cl)cccc1Cl`, the “activity change, negative = inhibition” value was inactive: -18.5%.
For `CCN(CC)S(=O)(=O)c1ccc(NC(=O)Nc2cccc(C(F)(F)F)c2)cc1`, the Potency was inconclusive: 56.2 µM [inhibitor, partial curve, poor fit].
With `CC1CCCN(C(=O)COC(=O)c2cc(-c3cccs3)nn2-c2ccccc2)C1` (stereo not given) the Potency was inconclusive: 4.47 µM [inhibitor, full curve, poor fit].
In the case of `O=C(Nc1cc(C(F)(F)F)ccc1-n1cncn1)c1ccc([N+](=O)[O-])o1`, the “activity change, negative = inhibition” value is reported as inactive: -8.95%.
`CC(=O)c1cccc(OCC(=O)Nc2cccc(C(=O)Nc3c(C)n(C)n(-c4ccccc4)c3=O)c2)c1` was tested, and the Potency was inconclusive: 100 µM [inhibitor, single point].
For `O=C1N=c2ccc([N+](=O)[O-])cc2=C1c1sc(=O)[nH]c1O`, the “activity change, negative = inhibition” value was inactive: -10.3%.
For `Cc1ccc2nc(Br)c3c(c2c1)OC(CBr)C3` (stereo not given), the Potency was inconclusive: 89.1 µM [inhibitor, partial curve, poor fit].
`COC(=O)c1cc(-c2ccc(S(=O)(=O)N3CCN(c4cc(Cl)ccc4C)CC3)s2)on1` was tested, and the “activity change, negative = inhibition” value was inactive: -9.01%.
With `CSc1nnc(-c2cc(Cl)ccc2NC(C)=O)c(=O)[nH]1` the Potency was inconclusive: 5.62 µM [inhibitor, full curve, poor fit].
In the case of `O=C(Cn1ncc2ccsc2c1=O)N1CCN(c2ccc(F)cc2)CC1`, the “activity change, negative = inhibition” value is reported as inactive: -11.8%.
For `O=C(O)CSC1CC(=O)N(c2ccc(Cl)c(Cl)c2)C1=O` (stereo not given), the Potency was inconclusive: 22.4 µM [inhibitor, single point].
For `Cc1ccc(NS(=O)(=O)c2ccc3c(c2)CC(=O)N3)c(C)c1`, the Potency was inconclusive: 63.1 µM [inhibitor, partial curve, poor fit].
In the case of `Cc1c(Br)c([N+](=O)[O-])nn1CCCC(=O)Nc1sc2c(c1C(N)=O)CCC(C)C2` (stereo not given), the “activity change, negative = inhibition” value is reported as inactive: -3.8%.
With `CC(=O)c1cc(C)cc(C)c1O` the “activity change, negative = inhibition” value was inactive: 12.8%.
`CCn1c(N)c(C(=O)N2CCOCC2)sc1=S` was tested, and the Potency was inconclusive: 50.1 µM [inhibitor, partial curve, poor fit].
With `CC1(C)CC(Nc2ccc(Nc3ccccc3)cc2)CC(C)(C)N1` the Potency was inconclusive: 1.58 µM [inhibitor, full curve, poor fit].
